This note sets out measurements from US20240254182A1 (PROVINCIAL HEALTH SERVICES AUTHORITY, published 2024).

Chains of the proteins cited; added tags and fusions are not shown. Lines headed by an entry give the natural chain unless they say otherwise; changes in a name come on top.
UniProt Q99062: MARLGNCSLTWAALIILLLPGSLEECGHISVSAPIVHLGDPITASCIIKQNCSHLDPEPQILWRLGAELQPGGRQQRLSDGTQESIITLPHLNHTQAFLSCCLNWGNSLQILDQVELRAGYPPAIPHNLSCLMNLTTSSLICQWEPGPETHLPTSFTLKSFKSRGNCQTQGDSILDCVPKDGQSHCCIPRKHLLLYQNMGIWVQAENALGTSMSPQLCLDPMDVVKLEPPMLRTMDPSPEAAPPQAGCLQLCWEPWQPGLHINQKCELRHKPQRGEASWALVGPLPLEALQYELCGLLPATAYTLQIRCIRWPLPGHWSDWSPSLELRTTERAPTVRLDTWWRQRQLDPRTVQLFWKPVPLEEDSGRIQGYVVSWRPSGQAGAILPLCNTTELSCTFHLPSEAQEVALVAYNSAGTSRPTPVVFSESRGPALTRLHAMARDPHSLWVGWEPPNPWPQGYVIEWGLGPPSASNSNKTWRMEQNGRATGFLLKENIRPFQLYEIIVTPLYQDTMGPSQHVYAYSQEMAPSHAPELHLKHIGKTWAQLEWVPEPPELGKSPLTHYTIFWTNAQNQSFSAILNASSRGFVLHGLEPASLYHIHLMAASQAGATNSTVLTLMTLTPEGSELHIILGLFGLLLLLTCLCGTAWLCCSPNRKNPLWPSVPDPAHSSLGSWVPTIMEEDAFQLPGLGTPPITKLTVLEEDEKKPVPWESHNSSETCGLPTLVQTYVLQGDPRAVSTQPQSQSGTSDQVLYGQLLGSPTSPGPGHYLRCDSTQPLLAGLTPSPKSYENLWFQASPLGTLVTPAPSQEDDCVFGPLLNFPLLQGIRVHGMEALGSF

This experiment addresses T1, WT G-CSFR(CRH) with N-terminal hexahistidine tag (human, UniProt Q99062 120-331).
T1 construct: CRH domain only, no Ig domain; also called G-CSFR(CRH)WT; WT receptor
T1 chain: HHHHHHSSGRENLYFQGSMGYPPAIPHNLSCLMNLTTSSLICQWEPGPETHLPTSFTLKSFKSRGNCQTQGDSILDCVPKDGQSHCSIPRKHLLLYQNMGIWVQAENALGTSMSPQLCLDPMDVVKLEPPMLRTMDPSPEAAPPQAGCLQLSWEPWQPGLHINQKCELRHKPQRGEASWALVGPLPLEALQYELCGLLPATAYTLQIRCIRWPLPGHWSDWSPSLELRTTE
The experiment can be described thus: variant G-CSF co-expressed with WT G-CSFR(CRH) in insect cells, pulldown via the Twin Strep tag on G-CSF, reducing SDS-PAGE. As to the method:
The P2 viral stocks were tested for protein expression in small-scale. P2 virus was used to co-infect G-CSFE mutants with their corresponding G-CSFRE mutant in Trichoplusia ni (Tni) cells in 12-well plates. Separate co-infections for each design mutant were performed using the P2 stocks of G-CSFWT and GCSFR(CRH)WT, as well as for G-CSFE mutants alone. For each reaction, 2 mL of healthy log-phase Tni at 2×10⁶ cells ml⁻¹ was inoculated with 20 μl P2 virus. Plates were incubated at 27° C. for approximately 70 h with shaking at 135 rpm. […] Briefly, to each 1.8 mL reaction supernatant 0.2 mL 10× HEPES Buffered Saline (HBS: 20 mM HEPES pH8, 150 mM NaCl) was added to 1×, 20 μl bed volume (b.v) of purification beads added and reactions incubated for 30 minutes with end-over-end mixing at 24° C. An additional 20 μl b.v of purification beads was added followed by a second 30 minute incubation. Beads were pelleted by centrifugation at 2200 rpm for 3 minutes, supernatant was removed and the beads washed with 1× HBS buffer.

B1: site II design 34 G-CSFE with C-terminal Twin Strep tag (ligand)
chain: TPLGPASSLPQSFLLKCLEQVRKIQGDGAALQEKLCATYKLCHPEELVLLGHSLGIPWAPLSSCPSQALQLAGCLSQLHSGLFLYQGLLQALEGISPELGPTLDTLQKDVARFATTIWQQMRRLGMAPALQPTQGAMPAFASAFQRRAGGVLVASHLQSFLEVSYRVLRHLAQAAAENLYFQGSAWSHPQFEKGGGSGGGSGGSAWSHPQFEK
Regarding B1, the binding result is “no binding”.
